One molecule from article PMC8446801, “Coiled-coil binding of the leucine zipper domains of APOL1 is necessary for the open cation channel conformation” (The Journal of Biological Chemistry, 2021) can be followed below.

Assay [1] has as its target APOL1 A375C (human) (UniProt O14791). Put plainly: condition: only 2 h at pH 7.2 without prior acidification; cross-linking; disulfide trapping between substituted cysteines, no membranes; protein (~0.159 uM) in 0.2 ml buffer (5 mM succinate, 5 mM Hepes, 0.5 mM KCl, 5 mM CaCl2), room temperature, 2 h at pH 7.2; nonreducing SDS-PAGE, silver stain; both purified.
The target is the same in assay [2]. The experiment in a line: condition: only 2 h at pH 5.6 with only brief neutralization (adjusted to pH 7.2 immediately before addition of sample buffer); cross-linking; disulfide trapping between substituted cysteines, no membranes; protein (~0.159 uM) in 0.2 ml buffer (5 mM succinate, 5 mM Hepes, 0.5 mM KCl, 5 mM CaCl2), room temperature, 2 h at pH 5.6, neutralised only immediately before addition of sample buffer; nonreducing SDS-PAGE, silver stain; both ….

No constants are given. Whether binding was seen depends on the method and setting.

B1: APOL1 A375C (natural protein, human, UniProt O14791 28-398, looked up)
chain: EEAGARVQQNVPSGTDTGDPQSKPLGDWAAGTMDPESSIFIEDAIKYFKEKVSTQNLLLLLTDNEAWNGFVAAAELPRNEADELRKALDNLARQMIMKDKNWHDKGQQYRNWFLKEFPRLKSKLEDNIRRLRALADGVQKVHKGTTIANVVSGSLSISSGILTLVGMGLAPFTEGGSLVLLEPGMELGITAALTGITSSTIDYGKKWWTQAQAHDLVIKSLDKLKEVKEFLGENISNFLSLAGNTYQLTRGIGKDIRALRRARANLQSVPHASASRPRVTEPISAESGEQVERVNEPSILEMSRGVKLTDVAPVSFFLVLDVVYLVYESKHLHEGAKSETAEELKKVCQELEEKLNILNNNYKILQADQEL
notes: Apolipoprotein L-I (APOL1) G0, human, aa 28-398 (without the signal peptide), most common isoform K150, I228, K255 (GenBank AAI12944.2); Cysteine at the a position of the C-terminal leucine zipper (ZIP) domain; APOL1 has no endogenous cysteines; Stored with 1 mM DTT in the SEC buffer; also called apolipoprotein L-I A375C; source: E. coli BL21-DE3-RIPL, purified (nickel-chelate chromatography, …)
As for B1, the binding entry in the assay with APOL1 A375C (human) [1] and with APOL1 A375C (human) [2] was “no binding” each time.
